# Reference: PubChem BioAssay AID504444 (National Center for Advancing Translational Sciences (NCATS), 2011)
# The whole screen tested about 360,000 compounds, of which about 7,500 (2.1%) were called active. Inconclusive results, whose numbers are uncertain, are shown with a selection of clear calls. Calls come from the whole dose curve; as a rule, active = well fitted inhibition curve with a large enough effect; inconclusive = small, poorly fitted or top-dose-only effect, or effect the other way; inactive = flat fitted curve, though single readings scatter. Where the call is inconclusive, the potency comes from a doubtful curve fit.
# Experiment: Nrf2 qHTS screen for inhibitors; note: nearly all actives have a fitted effect of over 60% in size
# Details: A549 ARE-Fluc reporter, luciferase luminescence, 18-24 h; series mostly up to 46 µM
# In short: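 Nrf2 activity is the BugLite luminescence, read 15 min after reagent at room temperature, following CellTiter-Fluor cytotoxicity readout (30 min, 37C). Compound titrations were applied for 18-24 h to 5000 A549 ARE_Fluc cells/well in 5% FBS OPTI-MEM.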
# Potency is the fitted concentration of half-maximal effect.
row,SMILES,Potency
1,C=C1CCC2[C@](C)(CO)[C@H](O)CC[C@@]2(C)[C@@H]1/C=C/C1=CCOC1=O (stereo not given in full),"inconclusive: 18.4 µM [falling, partial curve]"
2,O=C(c1c(O)c2ccccc2oc1=O)C1CCCCC1,"inconclusive: 18.4 µM [falling, single point]"
3,Cc1cc(Cl)ccc1OCC(=O)N(Cc1ccco1)c1c(N)n(Cc2ccccc2)c(=O)[nH]c1=O,inactive
4,O=C(CSc1n[nH]c(=O)n1Cc1ccco1)c1ccc2c(c1)OCCO2,inactive
5,Cc1cc2[nH]c(=O)c(=O)[nH]c2cc1S(=O)(=O)N1CCN(c2cccc(C)c2C)CC1,"inconclusive: 29.1 µM [activator, single point]"
6,COc1ncnc2c1oc1ccccc12,"inconclusive: 13 µM [activator, partial curve]"
7,COc1ccc(C2=NCCNC(C(F)(F)F)=C2)cc1,"inconclusive: 2.59 µM [falling, partial curve, poor fit]"
8,Cc1ccc(-c2nnc3ccccc3c2C(=O)Nc2cccc(Cl)c2)cc1,"inconclusive: 32.6 µM [activator, partial curve, poor fit]"
9,O=C(NC(=S)NN1CCCCC1c1cccnc1)c1ccc(Cl)cc1Cl (stereo not given),inactive
10,O=C(NNC(=S)NC1CCCCC1)c1cccc(S(=O)(=O)Nc2ccccc2Cl)c1,"inconclusive: 20.6 µM [falling, single point]"
11,Cc1cc(NC(=O)CSc2nc(C(C)C)nc3sc(C)c(C)c23)no1,active: 14.6 µM
12,Cc1nn2c(NCc3ccccn3)cc(C(C)(C)C)nc2c1-c1ccccc1,"inconclusive: 29.1 µM [falling, single point]"
13,Cc1nc(-c2ccc3c(c2)OCCO3)cs1,"inconclusive: 18.4 µM [activator, partial curve]"
14,Cc1ccc(CNC(=O)C2CCC(CNc3nc(=S)[nH]c4ccccc34)CC2)cc1 (stereo not given),"inconclusive: 29.1 µM [falling, single point]"
15,COc1ccc(S(=O)(=O)N2CCOC2CNC(=O)C(=O)NCCCc2ccccc2)cc1 (stereo not given),"inconclusive: 18.4 µM [falling, single point]"
16,COC(=O)c1ccc(N2C(=O)CC(SCCN)C2=O)cc1 (stereo not given),"inconclusive: 25.9 µM [activator, partial curve]"
17,Cc1ccc(Oc2ccc(NC(=O)Cn3ccsc3=N)cc2)cc1,inactive
18,COc1cc2c(cc1OC)CN(CC(=O)Nc1ccccc1C(=O)NCc1ccccc1)CC2,"inconclusive: 32.6 µM [falling, single point]"
19,Cn1cccc1-c1nc2ccc(NC(=O)c3ccco3)cc2[nH]1,"inconclusive: 9.2 µM [falling, partial curve]"
20,Cn1cc(C(=O)NS(=O)(=O)Nc2ccc(Br)cn2)c2ccccc21,"inconclusive: 29.1 µM [activator, single point]"
21,O=C(c1ccccc1)[C@@H]1[C@@H]2C(=O)N(c3ccc(F)cc3)C(=O)[C@@H]2C2CCCN21 (stereo not given in full),inactive
22,OCCC1CN(Cc2cnc(-c3ccccc3)s2)CCN1C1CCCC1 (stereo not given),"inconclusive: 11.6 µM [activator, partial curve, poor fit]"

# Copied from above (2 entries):
row,SMILES,Potency
10,O=C(NNC(=S)NC1CCCCC1)c1cccc(S(=O)(=O)Nc2ccccc2Cl)c1,"inconclusive: 20.6 µM [falling, single point]"
11,Cc1cc(NC(=O)CSc2nc(C(C)C)nc3sc(C)c(C)c23)no1,active: 14.6 µM

# Further compounds:

row,SMILES,Potency
1,Cc1cc(Nc2ccccc2)n(C(=O)c2ccccc2)n1,"inconclusive: 23.1 µM [activator, single point]"
2,CCOc1ccc(CN(C)c2nc(-c3cccnc3)nc3ccccc23)cc1OC,"inconclusive: 3.26 µM [falling, partial curve, poor fit]"
3,Nc1ccc(-c2nc3ncccc3o2)c(O)c1,inactive
4,CCOC(=O)c1c(Nc2ccc(Cl)cc2)sc(/C=C2\C=Nc3ccccc32)c1O,active: 1.46 µM
5,CCN(CC)S(=O)(=O)c1ccc(C)c(NC(=O)Cn2c(=O)cnc3ccccc32)c1,"inconclusive: 29.1 µM [falling, single point]"
6,COc1cccc(/C=N/Nc2cc(-n3nc(C)cc3-c3ccccc3)ncn2)c1O,inactive
7,COc1ccc(C(=O)Nc2nnc(S(=O)(=O)N(CC(C)C)c3ccccc3)s2)cc1,"inconclusive: 6.51 µM [falling, full curve, poor fit]"
8,CCc1ccc2oc(-c3cc(N)cc(C)c3O)nc2c1,"inconclusive: 10.3 µM [activator, partial curve]"
9,COc1cc(C(=O)Nc2nnc(SC)s2)c([N+](=O)[O-])cc1OC,"inconclusive: 14.6 µM [activator, partial curve, poor fit]"
10,Cc1cc(OCC(F)(F)C(F)(F)C(F)(F)C(F)F)nc(N)n1,"inconclusive: 13 µM [activator, partial curve]"
11,c1ccc(-c2nc3cc4ccccc4cc3[nH]2)nc1,"inconclusive: 29.1 µM [activator, single point]"
12,CCN1C(=O)C(=Cc2cccc(OC)c2Oc2ccc([N+](=O)[O-])cc2[N+](=O)[O-])SC1=S,"inconclusive: 20.6 µM [falling, single point]"
13,COc1ccc(NC(=O)c2ccc3c(c2)nnn3C2CCCC2)cc1Cl,"inconclusive: 2.91 µM [falling, full curve, poor fit]"
14,Cc1nc2nc(-c3ccccc3)cn2nc1C,inactive
15,Brc1ccc(OCCCOc2cccc3cccnc23)cc1,inactive
16,COc1cc(/C=C2\SC(=O)NC2=O)ccc1OCc1ccc(Cl)nc1,"inconclusive: 0.82 µM [falling, full curve]"
17,Clc1ccccc1-c1csc(Nc2cccnc2)n1,"inconclusive: 16.4 µM [activator, partial curve]"
18,CCNC(=S)N=Nc1c(O)[nH]c2ccc([N+](=O)[O-])cc12,"inconclusive: 25.9 µM [falling, single point]"
19,CCCCC(=O)Nc1ccc(NC(=O)c2ccc([N+](=O)[O-])cc2Cl)cc1OC,"inconclusive: 29.1 µM [activator, partial curve, poor fit]"
20,Nn1c(SCC(=O)NCCc2ccc(F)cc2)nnc1C1CCCCC1,"inconclusive: 4.61 µM [falling, single point]"
21,CCCc1cc(C(=O)OC)c(NC(=O)c2cc(C)on2)s1,"inconclusive: 16.4 µM [falling, partial curve, poor fit]"
22,Cc1nn(-c2ccccc2)c(C)c1-c1nnc(-c2c(C)nn(-c3ccccc3)c2C)o1,"inconclusive: 16.4 µM [falling, single point]"

row,SMILES,Potency
1,CC(C)(C)OC(=O)N1CCC(c2c(C(=O)NCc3ccc4c(c3)OCO4)cnn2-c2ccccc2Cl)CC1,"inconclusive: 29.1 µM [falling, single point]"
2,CC(C)(C)NC(=S)NNC(=O)c1ccc2ncccc2c1,"inconclusive: 1.46 µM [activator, full curve]"
3,Cc1ccc2c(=O)c(C(=O)c3ccc(F)cc3)cn(CC(=O)NCc3ccccc3Cl)c2n1,inactive
4,COc1ccc(-c2noc(CCCC(=O)NC3CCCCC3)n2)cc1,active: 20.6 µM
5,O=C1CC(c2ccccc2)CC(O)=C1C=NCCN1CCOCC1 (stereo not given),"inconclusive: 25.9 µM [falling, partial curve, poor fit]"
6,CCOc1ccccc1NC(=O)CN1c2cccc3cccc(c23)S1(=O)=O,"inconclusive: 4.61 µM [falling, partial curve, poor fit]"
7,CCCCn1nc2cc(C(=O)N[C@H](C)C3CCCCC3)ccc2c1OCC,"inconclusive: 29.1 µM [falling, single point]"
8,COc1ccc2cc(-c3[nH]ncc3CN3C[C@@H]4CCC[C@H]3C4)ccc2c1,"inconclusive: 14.6 µM [activator, partial curve, poor fit]"
9,O=C(/C=C/c1ccccc1)CC(=O)c1ccccc1O,"inconclusive: 29.1 µM [activator, single point]"
10,O=C(Nc1ccc(-c2nc3ccccc3o2)cc1)c1ccc2c(c1)OCO2,"inconclusive: 14.6 µM [falling, partial curve, poor fit]"
11,CCN(C(=O)c1cc(S(=O)(=O)N2CCc3ccccc32)cn1C)c1cccc(C)c1,"inconclusive: 18.4 µM [falling, single point]"
12,CCOC(=O)c1cnc2ccc(C(=O)OC)cc2c1NCCc1ccc(OC)c(OC)c1,inactive
13,COc1ccc(-c2oc(=O)c3cc(OC)c(OC)cc3c2C#CCCCO)cc1,"inconclusive: 20.6 µM [falling, single point]"
14,COc1ccc(/C=C(\C#N)C(=O)Nc2cc(S(=O)(=O)N3CCOCC3)ccc2N2CCCC2)cc1,"inconclusive: 20.6 µM [activator, single point]"
15,CS(=O)(=O)N1CCC(C(=O)Nc2cc(C(F)(F)F)ccc2Cl)CC1,"inconclusive: 13 µM [falling, partial curve, poor fit]"
16,CS(=O)(=O)NCc1ccc(C(=O)NCc2ccccc2)cc1,"inconclusive: 2.06 µM [falling, partial curve, poor fit]"
17,O=[N+]([O-])c1ccccc1Nc1nc(-c2cccnc2)cs1,"inconclusive: 29.1 µM [activator, single point]"
18,O=C(Nc1ccc(-c2nc3cccnc3s2)cc1)c1ccco1,"inconclusive: 13 µM [activator, partial curve]"
19,COc1ccc(-c2nc(C#N)c(NCc3ccc(C)cc3)o2)cc1OC,"inconclusive: 20.6 µM [falling, partial curve, poor fit]"
20,Cc1oc(-c2cccc(F)c2)nc1CN1CCCN(C(=O)c2ccco2)CC1,"inconclusive: 25.9 µM [falling, partial curve, poor fit]"
21,Cc1ccc(CC2CC(=O)N(c3ccncc3)C2=O)cc1 (stereo not given),"inconclusive: 29.1 µM [activator, single point]"
